Measured values taken from patent US20250283871A1, “COMPOSITIONS AND METHODS FOR MODULATING THE INTERACTION BETWEEN SS18-SSX FUSION ONCOPROTEIN AND NUCLEOSOMES” (Dana-Farber Cancer Institute, Inc., priority 2020, published 2025).

System: BAF complex subunits and histone proteins
Experiment: Mass spectrometry proteomics of purified HA-SS18 WT and HA-SS18-SSX1 complexes (Tables 5A-5E)
Parameters: species or system human
Settings: HEK-293T; for Total (total peptides) / Unique (unique peptides): HA-SS18SSX1 purification, NE (soluble nuclear extract) fraction, peptides per identified protein
[1] = HA-SS18WT_NE_peptides: HA-SS18 WT complexes purified from nuclear extract (NE), label = protein identified (Gene Symbol)
[2] = HA-SS18WT_NE_peptides: proteins co-purified with HA-SS18 WT from nuclear extract (NE)

B1: NPEPPS (protein, UniProt P55786 1-919, looked up)
Puromycin-sensitive …: MWLAAAAPSLARRLLFLGPPPPPLLLLVFSRSSRRRLHSLGLAAMPEKRPFERLPADVSPINYSLCLKPDLLDFTFEGKLEAAAQVRQATNQIVMNCADIDIITASYAPEGDEEIHATGFNYQNEDEKVTLSFPSTLQTGTGTLKIDFVGELNDKMKGFYRSKYTTPSGEVRYAAVTQFEATDARRAFPCWDEPAIKATFDISLVVPKDRVALSNMNVIDRKPYPDDENLVEVKFARTPVMSTYLVAFVVGEYDFVETRSKDGVCVRVYTPVGKAEQGKFALEVAAKTLPFYKDYFNVPYPLPKIDLIAIADFAAGAMENWGLVTYRETALLIDPKNSCSSSRQWVALVVGHELAHQWFGNLVTMEWWTHLWLNEGFASWIEYLCVDHCFPEYDIWTQFVSADYTRAQELDALDNSHPIEVSVGHPSEVDEIFDAISYSKGASVIRMLHDYIGDKDFKKGMNMYLTKFQQKNAATEDLWESLENASGKPIAAVMNTWTKQMGFPLIYVEAEQVEDDRLLRLSQKKFCAGGSYVGEDCPQWMVPITISTSEDPNQAKLKILMDKPEMNVVLKNVKPDQWVKLNLGTVGFYRTQYSSAMLESLLPGIRDLSLPPVDRLGLQNDLFSLARAGIISTVEVLKVMEAFVNEPNYTVWSDLSCNLGILSTLLSHTDFYEEIQEFVKDVFSPIGERLGWDPKPGEGHLDALLRGLVLGKLGKAGHKATLEEARRRFKDHVEGKQILSADLRSPVYLTVLKHGDGTTLDIMLKLHKQADMQEEKNRIERVLGATLLPDLIQKVLTFALSEEVRPQDTVSVIGGVAGGSKHGRKAAWKFIKDNWEELYNRYQGGFLISRLIKLSVEGFAVDKMAGEVKAFFESHPAPSAERTIQQCCENILLNAAWLKRDAESIHQYLLQRKASPPTV
Total (total peptides): 5 | Unique (unique peptides): 5 | Total (peptides) [1]: 4 | Unique (peptides) [1]: 4

B2: DDOST (protein, UniProt P39656 43-456, looked up)
Dolichyl-diphosphooligosacchar …: SGPRTLVLLDNLNVRETHSLFFRSLKDRGFELTFKTADDPSLSLIKYGEFLYDNLIIFSPSVEDFGGNINVETISAFIDGGGSVLVAASSDIGDPLRELGSECGIEFDEEKTAVIDHHNYDISDLGQHTLIVADTENLLKAPTIVGKSSLNPILFRGVGMVADPDNPLVLDILTGSSTSYSFFPDKPITQYPHAVGKNTLLIAGLQARNNARVIFSGSLDFFSDSFFNSAVQKAAPGSQRYSQTGNYELAVALSRWVFKEEGVLRVGPVSHHRVGETAPPNAYTVTDLVEYSIVIQQLSNGKWVPFDGDDIQLEFVRIDPFVRTFLKKKGGKYSVQFKLPDVYGVFQFKVDYNRLGYTHLYSSTQVSVRPLQHTQYERFIPSAYPYYASAFSMMLGLFIFSIVFLHMKEKEKSD
Total (total peptides): 5 | Unique (unique peptides): 5 | Total (peptides) [1]: 8 | Unique (peptides) [1]: 7

B3: ARMCX3 (protein, UniProt Q9UH62 1-379, looked up)
Armadillo repeat-containing …: MGYARKVGWVTAGLVIGAGACYCIYRLTRGRKQNKEKMAEGGSGDVDDAGDCSGARYNDWSDDDDDSNESKSIVWYPPWARIGTEAGTRARARARARATRARRAVQKRASPNSDDTVLSPQELQKVLCLVEMSEKPYILEAALIALGNNAAYAFNRDIIRDLGGLPIVAKILNTRDPIVKEKALIVLNNLSVNAENQRRLKVYMNQVCDDTITSRLNSSVQLAGLRLLTNMTVTNEYQHMLANSISDFFRLFSAGNEETKLQVLKLLLNLAENPAMTRELLRAQVPSSLGSLFNKKENKEVILKLLVIFENINDNFKWEENEPTQNQFGEGSLFFFLKEFQVCADKVLGIESHHDFLVKVKVGKFMAKLAEHMFPKSQE
Total (total peptides): 5 | Unique (unique peptides): 5 | Total (peptides) [2]: 1 | Unique (peptides) [2]: 1
